Measured data: PubChem BioAssay AID1159578 (Peter MacCallum Cancer Centre, 2015)
The deposit covers about 18,000 reagents; this is an unselected part. About 1,030 of all reagents (5.7%) were called active. 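Inactive calls also include pools with fewer than 3300 nuclei, whose migration was not assessed.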 Raw values vary from plate to plate and are shown uncorrected. Unmarked entries are inactive. Reagent sequences are not shown.

Purpose: 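siRNA pools altering how lymphatic endothelial cells close a scratch wound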 (primary screen)
System: human lymphatic endothelial cells
Reagent: siRNA pool against human genes, 40 nM
Timing: 48 h after transfection
Read-out: 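High-content imaging of dye-stained cells in a scratch assay measures filled wound area and nuclei per well; duplicate means given as ratio to mock and robust z-score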
Scale: migration robust z-score: higher = faster migration into the scratch; migration relative to mock: higher = more scratch area covered than mock; nuclei per well: higher = more cells in the well
Hit rule: 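Migration changed when robust z exceeds 2 or falls below -2 and mean nuclei number is at least 3300; otherwise not called changed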
Meaning of the calls: active = migration changed; inactive = no migration change, or too few cells

Gene | migration robust z-score | migration class with cell-count check | migration relative to mock | nuclei per well, duplicate mean
KRT24 | 0.06 | migration z between -2 and 2; enough cells | 0.9 | 6740
IGSF8 | 0.48 | migration z between -2 and 2; enough cells | 1.01 | 6074
KLHDC10 | -0.96 | migration z between -2 and 2; enough cells | 0.63 | 5194
ADRB2 | 0.16 | migration z between -2 and 2; enough cells | 0.84 | 5362
RNASEL | -1.25 | migration z between -2 and 2; enough cells | 0.56 | 3936
PDE4DIP | 0.44 | migration z between -2 and 2; enough cells | 1 | 6376
ANKRD11 | -0.08 | migration z between -2 and 2; enough cells | 0.86 | 6848
MRPL34 | 1.43 | migration z between -2 and 2; enough cells | 1.26 | 5881
SLC29A4 | -0.72 | migration z between -2 and 2; enough cells | 0.7 | 3888
BCL3 | -1.04 | migration z between -2 and 2; enough cells | 0.6 | 5362

Continued (3 carried over from the part before).
Gene | migration robust z-score | migration class with cell-count check | migration relative to mock | nuclei per well, duplicate mean
MRPL34 | 1.43 | migration z between -2 and 2; enough cells | 1.26 | 5881
SLC29A4 | -0.72 | migration z between -2 and 2; enough cells | 0.7 | 3888
BCL3 | -1.04 | migration z between -2 and 2; enough cells | 0.6 | 5362
FANCI | -0.34 | migration z between -2 and 2; enough cells | 0.8 | 4582
OPN3 | 0.57 | migration z between -2 and 2; enough cells | 0.92 | 6664
ZMYND11 | 0.18 | migration z between -2 and 2; enough cells | 0.84 | 6522
RBM45 | -0.08 | migration z between -2 and 2; enough cells | 0.86 | 5812
CAPNS1 | -0.52 | migration z between -2 and 2; enough cells | 0.7 | 5275
TPO | -2.52 (active) | migration z below -2; enough cells | 0.32 | 4344
KLKB1 | -1.43 | migration z between -2 and 2; enough cells | 0.53 | 6216
CRELD1 | -1.2 | migration z between -2 and 2; enough cells | 0.57 | 4084
MMP8 | 0.18 | migration z between -2 and 2; enough cells | 0.84 | 5444
OR7E24 | 1.69 | migration z between -2 and 2; enough cells | 1.33 | 6238
CDT1 | 1.6 | migration z between -2 and 2; enough cells | 1.3 | 5250
ARMC12 | -0.2 | migration z between -2 and 2; enough cells | 0.83 | 6198
PTPN13 | -0.73 | migration z between -2 and 2; enough cells | 0.66 | 6364
